Out of some 350,000 compounds screened, about 1,200 (0.34%) were called active. This list was built around the results that the source calls inconclusive (neither active nor inactive); the mix of calls is not that of the screen. Calls come from the whole dose curve; as a rule, active = well fitted inhibition curve with a large enough effect; inconclusive = small, poorly fitted or top-dose-only effect; inactive = no such curve, though single readings can be large or run the other way. A potency beside an inconclusive call is a rough fit, not a confirmed value.
What follows are compounds tested against DNA repair nuclease/redox regulator APEX1 (Homo sapiens) (UniProt P27695) (assay: qHTS Assay for Inhibitors of the Human Apurinic/apyrimidinic Endonuclease 1 (APE1)). Conditions: recombinant APE1, TAMRA/BHQ-2 abasic DNA cleavage fluorescence; series mostly up to 65.8 µM.
Method in brief: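 Measures dequenching upon AP-site incision of a 5'-TAMRA/3'-BHQ-2 THF-containing duplex, 50 nM; human APE1 0.75 nM after 15 min room-temperature exposure to compound; kinetic three-point read at one-minute spacing.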
Note: nearly all actives have a fitted effect of over 55% in size.
Potency is the fitted concentration of half-maximal effect.

Protein sequences, listed by entry. Tags and fused reporters are not part of them.
UniProt P27695, whole entry, looked up: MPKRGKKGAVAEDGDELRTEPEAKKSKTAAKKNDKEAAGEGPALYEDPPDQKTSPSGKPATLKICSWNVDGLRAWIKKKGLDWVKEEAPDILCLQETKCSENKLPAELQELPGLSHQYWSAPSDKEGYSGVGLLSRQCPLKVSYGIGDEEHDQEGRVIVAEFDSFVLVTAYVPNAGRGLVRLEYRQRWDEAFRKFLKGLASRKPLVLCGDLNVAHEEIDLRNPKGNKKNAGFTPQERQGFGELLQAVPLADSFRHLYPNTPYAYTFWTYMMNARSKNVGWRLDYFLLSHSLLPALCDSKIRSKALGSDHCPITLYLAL

SMILES | Potency
Cc1c(Cl)cccc1N=c1c([N+](=O)[O-])nn(-c2ccccc2)n1O | inconclusive: 3.16 µM [inhibitor, partial curve]
Clc1ccccc1-c1ccc2ncnc(NCCN3CCOCC3)c2c1 | inactive
CCOc1ccc(OCC)c(NC(=O)Cn2c(C)nc3ccccc3c2=O)c1 | inconclusive: 2.24 µM [inhibitor, single point]
CCC(C)NC(=O)CS(=O)Cc1nc(-c2cccc(OC)c2)oc1C (centres undefined) | inactive
NC(=O)[C@@H]1CCCNc2c(F)cc([N+](=O)[O-])cc2C(=O)N[C@@H](CO)C(=O)NCC(=O)N1 | inconclusive: 8.91 µM [inhibitor, single point]
CCNC(=O)COc1ccc(CC)cc1 | inconclusive: 20 µM [inhibitor, single point]
Cc1ccc(C2C3=C(CCCC3=O)Nc3c2c(C)nn3-c2ccccn2)o1 (centres undefined) | inconclusive: 31.6 µM [inhibitor, single point]
O=C(O)c1cccc(Nc2ncnc3ccc(Br)cc23)c1 | inconclusive: 0.0224 µM [inhibitor, full curve]
CCOC(=O)c1cc2c(=O)n3cccc(C)c3nc2n(Cc2ccco2)c1=NC(=O)c1cccnc1 | inactive
Cc1ccc(C2(C(F)(F)F)NC(=O)N3N=C4CCCCCN4C3=C2C#N)cc1 (centres undefined) | inactive
O=C(Nc1ccccc1)c1nccn1Cc1ccc(F)cc1 | inconclusive: 31.6 µM [inhibitor, partial curve]
CC(C)C[C@@H](CN(C)N=O)N(C[C@H](Cc1ccccc1)N(CCc1ccccc1)N=O)N=O | inactive
CCN(CC)c1ccc2c(c1)oc(=O)c1c(Cl)cc(=O)oc12 | inactive
COC(=O)CCS(=O)(=O)c1cc(Cl)ccc1Cl | inconclusive: 0.158 µM [inhibitor, full curve]
Cc1ccc(C2(c3ccc(C)cc3)CC2C(=O)Nc2ccc([N+](=O)[O-])cc2O)cc1 (centres undefined) | inconclusive: 39.8 µM [inhibitor, single point]
CC[C@@](N)(C(=O)O)c1ccc(C(=O)O)cc1 | inconclusive: 44.7 µM [inhibitor, single point]
CCOC(=O)C(NC(=O)c1ccccc1Cl)(Nc1ccc(C)c(C)c1)C(F)(F)F (centres undefined) | inconclusive: 1.12 µM [inhibitor, full curve, poor fit]
CC(=O)c1ccc2noc(-c3ccc(F)cc3)c2c1 | inconclusive: 8.91 µM [inhibitor, full curve, poor fit]
N#C[C@@H]1[C@@H]2C(=O)N(c3ccc4c(c3)OCCO4)C(=O)[C@@H]2C2c3ccccc3C=CN21 (some centres undefined) | inconclusive: 39.8 µM [inhibitor, single point]

An excerpt from above in order of SMILES length, low to high.
SMILES | Potency
CCC(C)NC(=O)CS(=O)Cc1nc(-c2cccc(OC)c2)oc1C (centres undefined) | inactive
Cc1ccc(C2(C(F)(F)F)NC(=O)N3N=C4CCCCCN4C3=C2C#N)cc1 (centres undefined) | inactive
CCOC(=O)C(NC(=O)c1ccccc1Cl)(Nc1ccc(C)c(C)c1)C(F)(F)F (centres undefined) | inconclusive: 1.12 µM [inhibitor, full curve, poor fit]

— PubChem BioAssay AID2517 (National Center for Advancing Translational Sciences (NCATS), 2010)
